No constants are given. Whether binding was seen depends on the method and setting. Some entries that bind do so weakly or less than the wild type. Sequences can lack the tags named with a protein.

Sequences of proteins named here, by UniProt entry; tags and fusion partners are left off. A change or cut given only in a name is not applied to a line headed by its entry.
UniProt P02452: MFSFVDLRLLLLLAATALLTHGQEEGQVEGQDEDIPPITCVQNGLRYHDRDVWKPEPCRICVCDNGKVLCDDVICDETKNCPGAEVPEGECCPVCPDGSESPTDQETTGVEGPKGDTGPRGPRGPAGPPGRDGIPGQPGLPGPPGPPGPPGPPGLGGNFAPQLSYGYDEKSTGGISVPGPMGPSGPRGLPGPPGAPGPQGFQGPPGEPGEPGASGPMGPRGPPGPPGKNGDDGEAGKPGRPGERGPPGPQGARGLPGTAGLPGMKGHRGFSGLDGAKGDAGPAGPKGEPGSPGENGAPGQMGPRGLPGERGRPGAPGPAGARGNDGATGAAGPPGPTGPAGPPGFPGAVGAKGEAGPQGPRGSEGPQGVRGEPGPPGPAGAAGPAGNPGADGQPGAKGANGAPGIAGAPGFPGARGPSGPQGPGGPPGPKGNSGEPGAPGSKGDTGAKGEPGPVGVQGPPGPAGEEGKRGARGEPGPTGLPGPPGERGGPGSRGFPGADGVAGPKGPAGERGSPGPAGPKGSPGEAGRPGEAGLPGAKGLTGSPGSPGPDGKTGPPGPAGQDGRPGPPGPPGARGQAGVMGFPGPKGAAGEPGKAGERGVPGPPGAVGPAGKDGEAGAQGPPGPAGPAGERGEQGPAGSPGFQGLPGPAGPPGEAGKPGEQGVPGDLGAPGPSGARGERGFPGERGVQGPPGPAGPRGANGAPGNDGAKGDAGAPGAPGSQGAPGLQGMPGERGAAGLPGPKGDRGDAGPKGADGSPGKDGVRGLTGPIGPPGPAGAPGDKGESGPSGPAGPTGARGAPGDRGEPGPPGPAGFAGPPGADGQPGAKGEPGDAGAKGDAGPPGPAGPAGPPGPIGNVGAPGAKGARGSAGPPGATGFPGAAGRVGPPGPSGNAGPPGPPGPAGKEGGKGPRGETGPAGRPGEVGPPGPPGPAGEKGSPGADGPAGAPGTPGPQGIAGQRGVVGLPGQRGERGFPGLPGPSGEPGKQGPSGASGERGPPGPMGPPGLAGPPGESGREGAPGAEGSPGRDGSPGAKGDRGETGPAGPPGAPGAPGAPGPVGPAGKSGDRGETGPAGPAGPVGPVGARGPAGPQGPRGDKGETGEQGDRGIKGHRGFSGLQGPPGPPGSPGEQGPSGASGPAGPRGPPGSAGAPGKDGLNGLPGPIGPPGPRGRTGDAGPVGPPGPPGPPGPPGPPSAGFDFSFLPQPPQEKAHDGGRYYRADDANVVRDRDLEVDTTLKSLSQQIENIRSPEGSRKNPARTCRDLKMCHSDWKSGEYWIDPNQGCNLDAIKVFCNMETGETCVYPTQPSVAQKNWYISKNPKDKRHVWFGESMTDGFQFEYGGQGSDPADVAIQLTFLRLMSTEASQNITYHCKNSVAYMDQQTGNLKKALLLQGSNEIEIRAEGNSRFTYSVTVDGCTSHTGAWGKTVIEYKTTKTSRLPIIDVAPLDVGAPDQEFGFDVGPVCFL
UniProt P08123: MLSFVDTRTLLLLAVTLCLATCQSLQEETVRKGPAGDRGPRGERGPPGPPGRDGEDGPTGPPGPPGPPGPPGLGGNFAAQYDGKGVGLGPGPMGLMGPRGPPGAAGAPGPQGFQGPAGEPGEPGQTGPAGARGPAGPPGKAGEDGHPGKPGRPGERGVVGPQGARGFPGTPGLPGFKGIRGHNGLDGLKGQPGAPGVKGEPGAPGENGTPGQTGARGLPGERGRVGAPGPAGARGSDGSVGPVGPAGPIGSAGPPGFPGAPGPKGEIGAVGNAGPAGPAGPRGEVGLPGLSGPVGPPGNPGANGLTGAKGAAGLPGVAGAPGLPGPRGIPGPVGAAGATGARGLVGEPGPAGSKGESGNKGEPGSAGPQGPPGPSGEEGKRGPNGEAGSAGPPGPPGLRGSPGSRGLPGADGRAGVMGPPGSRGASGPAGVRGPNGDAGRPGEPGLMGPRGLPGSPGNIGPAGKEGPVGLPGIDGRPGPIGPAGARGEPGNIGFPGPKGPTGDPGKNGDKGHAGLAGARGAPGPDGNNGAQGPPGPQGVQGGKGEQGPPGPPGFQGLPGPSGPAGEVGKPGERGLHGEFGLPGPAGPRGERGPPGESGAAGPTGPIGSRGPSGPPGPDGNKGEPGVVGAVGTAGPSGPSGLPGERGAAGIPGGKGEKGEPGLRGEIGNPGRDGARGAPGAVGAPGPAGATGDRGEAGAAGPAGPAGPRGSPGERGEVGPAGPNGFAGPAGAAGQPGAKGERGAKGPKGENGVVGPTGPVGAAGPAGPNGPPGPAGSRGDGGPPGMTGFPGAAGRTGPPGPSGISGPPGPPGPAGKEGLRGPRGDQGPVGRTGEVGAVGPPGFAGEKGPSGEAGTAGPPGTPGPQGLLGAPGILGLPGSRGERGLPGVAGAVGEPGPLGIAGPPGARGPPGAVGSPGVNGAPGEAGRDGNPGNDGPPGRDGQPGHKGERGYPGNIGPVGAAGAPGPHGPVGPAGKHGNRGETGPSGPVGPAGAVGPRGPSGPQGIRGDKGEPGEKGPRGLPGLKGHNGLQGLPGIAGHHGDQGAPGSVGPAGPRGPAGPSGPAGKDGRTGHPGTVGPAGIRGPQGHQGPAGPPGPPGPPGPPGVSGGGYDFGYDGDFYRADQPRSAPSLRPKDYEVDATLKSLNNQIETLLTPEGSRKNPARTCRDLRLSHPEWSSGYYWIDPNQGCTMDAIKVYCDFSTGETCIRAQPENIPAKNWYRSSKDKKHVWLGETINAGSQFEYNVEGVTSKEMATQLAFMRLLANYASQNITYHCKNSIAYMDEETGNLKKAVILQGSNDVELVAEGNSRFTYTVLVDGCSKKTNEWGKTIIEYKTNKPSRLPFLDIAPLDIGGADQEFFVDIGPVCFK

Experiment [1] addresses T1, mock treated collagen I (human) (UniProt P02452+P08123). Nature of the experiment: ELISA; ELISA based immune binding assay: collagen I (mock, MMP1 or MMP9 treated) coated on 96-well plates in MMP buffer overnight at 4°C and methanol-fixed; stained with biotinylated Fc fusion protein (5 μg/ml, 1 hour at RT), then Streptavidin-HRP and TMB; absorbance 450 nm minus 570 nm; both purified.

For experiment [2], the target named is T1, mock treated collagen I (human). Briefly: fluorescence based immune binding assay; collagen I (mock, MMP1 or MMP9 treated) coated on 96-well plates and methanol-fixed; stained with biotinylated Fc fusion protein (5 μg/ml, 1 hour at RT), then fluorescent Streptavidin; imaged on Odyssey Sa (LI-COR); both purified.
The target is the same in experiment [3]. Nature of the experiment: fluorescence based immune binding assay; fluorescence based immune binding assay of biotinylated LAIR-1-Fc (5 μg/ml) on coated collagen I, after pre-treatment of the coated plate with LAIR-2-Fc or LAIR-2-Fc dead (2 hours at 37°C in culture medium); both purified.
For experiment [4] the target is unchanged. Briefly: ELISA; ELISA based immune binding assay of biotinylated LAIR-1-Fc (5 μg/ml) on 5 μg/ml coated collagen I, after pre-treatment of the coated plate with LAIR-2-Fc or LAIR-2-Fc dead (indicated concentrations, 2 hours at 37°C in culture medium); both purified. A general note: In an ELISA, binding on a coated surface is turned into a signal by an enzyme label.

B1: LAIR-2-Fc (Fc fusion, UniProt Q6ISS4 22-152)
chain: QEGALPRPSISAEPGTVISPGSHVTFMCRGPVGVQTFRLEREDRAKYKDSYNVFRLGPSESEARFHIDSVSEGNAGLYRCLYYKPPGWSEHSDFLELLVKESSGGPDSPDTEPGSSAGTVPGTEASGFDAP
modifications: biotinylated where used for staining in the immune binding assays
Turning to B1, the binding entry in experiment [1] and in experiment [2] was “binds” each time.

B2: LAIR-2-Fc dead (Fc fusion, UniProt Q6ISS4 22-152)
chain: QEGALPRPSISAEPGTVISPGSHVTFMCRGPVGVQTFRLEREDRAKYKDSYNVFRLGPSESEARFHIDSVSEGNAGLYRCLYYKPPGWSEHSDFLELLVKESSGGPDSPDTEPGSSAGTVPGTEASGFDAP
modifications: biotinylated where used for staining in the immune binding assays
Regarding B2, the binding entry in experiment [1] and in experiment [2] was “binds” throughout.

B3: LAIR-1-Fc fusion protein (Fc fusion, UniProt Q6GTX8 22-165)
chain: QEEDLPRPSISAEPGTVIPLGSHVTFVCRGPVGVQTFRLERDSRSTYNDTEDVSQASPSESEARFRIDSVREGNAGLYRCIYYKPPKWSEQSDYLELLVKESSGGPDSPDTEPGSSAGPTQRPSDNSHNEHAPASQGLKAEHLY
modifications: biotinylated
In the case of B3, the binding result in experiment [3], in experiment [4], in experiment [1] and in experiment [2] was “binds” throughout.

The record behind these values is article PMC8529287.
